# Measured values published in the supplement of paper PMC8728848.
# The other results are listed elsewhere or left out.
# B1: TAL6-4LysM (Trichoderma atroviride) (protein)
# chain: AADSIPSISPTGIITPTPTQSGMVSNCNKFYDVHSNDGCSAIASSQHVDLSSLYKWNPAIKTDCSGLQASVYVCIGILTTSMSTTSKLPTTTSKPSTTSKPPTGITTPTPTQSGMVKNCNKFYDVHSGDGCSAIASSQKVNLSSFYLWNPAVKTDCSGLQASVFVCIGTLTTSMSTTTSKLPTTTSKPSTTSKPPTGIITPTPTQNGMVKNCNKFYDVHSGDGCSAIASSQKVNLSSFYLWNPAVKTDCSGLQASVFVCVGTATTTTAAGITTPTPTQSGMVSGCNKFYDVHAGDGCSAIASSQKIALSSLYKWNPAVKTDCSGLQASVYICIGVGNAAAARVTGALEQKLISEEDLNSAVDHHHHHH
# What was measured:
# Assay in all cases: glycan array binding signal (z-score within array); higher = stronger binding
# Settings in all cases: glycan notation: IUPAC condensed, linker removed
# [1] = biological target: Fuc(a1-2)[Gal(a1-4)]Gal(b1-4)GlcNAc
# Outline: (§1)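 The binding signal is a Z-score computed within each array and averaged over linkers. Arrays of the same protein sequence at different concentrations or buffers were also averaged together. Data originate from 3228 arrays in the Consortium for Functional Glycomics database, kept only where the protein sequence was available.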
# [2] = biological target: Fuc(a1-2)[GalNAc(a1-3)]Gal
# Outline: as §1
# [3] = biological target: Fuc(a1-2)[GalNAc(a1-3)]Gal(b1-3)GalNAc(a1-3)[Fuc(a1-2)]Gal(b1-4)GlcNAc
# Outline: as §1
# [4] = biological target: Fuc(a1-2)[GalNAc(a1-3)]Gal(b1-3)GalNAc(b1-3)Gal(a1-4)Gal(b1-4)Glc
# Outline: as §1
# [5] = biological target: Fuc(a1-2)[GalNAc(a1-3)]Gal(b1-3)GlcNAc
# Outline: as §1
# [6] = biological target: Fuc(a1-2)[GalNAc(a1-3)]Gal(b1-3)GlcNAc(b1-2)Man(a1-3)[Fuc(a1-2)[GalNAc(a1-3)]Gal(b1-3)GlcNAc(b1-2)Man(a1-6)]Man(b1-4)GlcNAc(b1-4)GlcNAc
# Outline: as §1
# [7] = biological target: Fuc(a1-2)[GalNAc(a1-3)]Gal(b1-3)GlcNAc(b1-2)Man(a1-3)[Fuc(a1-2)[GalNAc(a1-3)]Gal(b1-3)GlcNAc(b1-2)Man(a1-6)]Man(b1-4)GlcNAc(b1-4)[Fuc(a1-6)]GlcNAc
# Outline: as §1
# [8] = biological target: Fuc(a1-2)[GalNAc(a1-3)]Gal(b1-3)GlcNAc(b1-3)GalNAc
# Outline: as §1
# [9] = biological target: Fuc(a1-2)[GalNAc(a1-3)]Gal(b1-3)GlcNAc(b1-6)GalNAc
# Outline: as §1
# [10] = biological target: Fuc(a1-2)[GalNAc(a1-3)]Gal(b1-4)Glc
# Outline: as §1
# [11] = biological target: Fuc(a1-2)[GalNAc(a1-3)]Gal(b1-4)GlcNAc
# Outline: as §1
# [12] = biological target: Fuc(a1-2)[GalNAc(a1-3)]Gal(b1-4)GlcNAc(b1-2)Man
# Outline: as §1
# [13] = biological target: Fuc(a1-2)[GalNAc(a1-3)]Gal(b1-4)GlcNAc(b1-2)Man(a1-3)[Fuc(a1-2)[GalNAc(a1-3)]Gal(b1-4)GlcNAc(b1-2)Man(a1-6)]Man(b1-4)GlcNAc(b1-4)GlcNAc
# Outline: as §1
# [14] = biological target: Fuc(a1-2)[GalNAc(a1-3)]Gal(b1-4)GlcNAc(b1-2)Man(a1-3)[Fuc(a1-2)[GalNAc(a1-3)]Gal(b1-4)GlcNAc(b1-2)Man(a1-6)]Man(b1-4)GlcNAc(b1-4)[Fuc(a1-6)]GlcNAc
# Outline: as §1
# [15] = biological target: Fuc(a1-2)[GalNAc(a1-3)]Gal(b1-4)GlcNAc(b1-3)Gal(b1-4)GlcNAc
# Outline: as §1
# [16] = biological target: Fuc(a1-2)[GalNAc(a1-3)]Gal(b1-4)GlcNAc(b1-3)Gal(b1-4)GlcNAc(b1-3)Gal(b1-4)GlcNAc
# Outline: as §1
# [17] = biological target: Fuc(a1-2)[GalNAc(a1-3)]Gal(b1-4)GlcNAc(b1-3)GalNAc
# Outline: as §1
# [18] = biological target: Fuc(a1-2)[GalNAc(a1-3)]Gal(b1-4)GlcNAc(b1-3)[Fuc(a1-2)[GalNAc(a1-3)]Gal(b1-4)GlcNAc(b1-6)]GalNAc
# Outline: as §1
# [19] = biological target: Fuc(a1-2)[GalNAc(a1-3)]Gal(b1-4)GlcNAc(b1-6)GalNAc
# Outline: as §1
# [20] = biological target: Fuc(a1-2)[GalNAc(a1-3)]Gal(b1-4)[Fuc(a1-3)]GlcNAc
# Outline: as §1
# [21] = biological target: Fuc(a1-2)[GalNAc(a1-3)]Gal(b1-4)[Fuc(a1-3)]GlcNAc(b1-3)GalNAc
# Outline: as §1
# [22] = biological target: Fuc(a1-2)[GalNAc(a1-4)]Gal(b1-4)GlcNAc
# Outline: as §1
# [23] = biological target: Fuc(a1-2)[GalNAc(b1-3)]Gal
# Outline: as §1
# Fuc(a1-3)GlcNAc = biological target: Fuc(a1-3)GlcNAc
# Outline: as §1
# [24] = biological target: Fuc(a1-3)[Gal(b1-4)]Glc6S
# Outline: as §1
# [25] = biological target: Fuc(a1-3)[Gal(b1-4)]GlcNAc
# Outline: as §1
# [26] = biological target: Fuc(a1-3)[Gal(b1-4)]GlcNAc(b1-2)Man
# Outline: as §1
# [27] = biological target: Fuc(a1-3)[Gal(b1-4)]GlcNAc(b1-2)Man(a1-3)[Fuc(a1-3)[Gal(b1-4)]GlcNAc(b1-2)Man(a1-6)]Man(b1-4)GlcNAc(b1-4)GlcNAc
# Outline: as §1
# [28] = biological target: Fuc(a1-3)[Gal(b1-4)]GlcNAc(b1-2)Man(a1-3)[Fuc(a1-3)[Gal(b1-4)]GlcNAc(b1-2)Man(a1-6)]Man(b1-4)GlcNAc(b1-4)[Fuc(a1-6)]GlcNAc
# Outline: as §1
# [29] = biological target: Fuc(a1-3)[Gal(b1-4)]GlcNAc(b1-3)Gal(b1-3)[Fuc(a1-4)]GlcNAc
# Outline: as §1
# [30] = biological target: Fuc(a1-3)[Gal(b1-4)]GlcNAc(b1-3)Gal(b1-4)[Fuc(a1-3)]GlcNAc
# Outline: as §1
# [31] = biological target: Fuc(a1-3)[Gal(b1-4)]GlcNAc(b1-3)Gal(b1-4)[Fuc(a1-3)]GlcNAc(b1-3)Gal(b1-4)[Fuc(a1-3)]GlcNAc
# Outline: as §1
# [32] = biological target: Fuc(a1-3)[Gal(b1-4)]GlcNAc(b1-3)GalNAc
# Outline: as §1
# [33] = biological target: Fuc(a1-3)[Gal(b1-4)]GlcNAc(b1-6)GalNAc
# Outline: as §1
# [34] = biological target: Fuc(a1-3)[Gal(b1-4)]GlcNAc(b1-6)[Gal(b1-3)GlcNAc(b1-3)]Gal(b1-4)Glc
# Outline: as §1
# [35] = biological target: Fuc(a1-3)[Gal(b1-4)]GlcNAc6S
# Outline: as §1
# [36] = biological target: Fuc(a1-3)[Gal3S(b1-4)]Glc
# Outline: as §1
# [37] = biological target: Fuc(a1-3)[Gal3S(b1-4)]GlcNAc
# Outline: as §1
binder,measurement,setting,value
B1,glycan array binding signal (z-score),[1],2.32
same,glycan array binding signal (z-score),[2],0.2
same,glycan array binding signal (z-score),[3],-0.505
same,glycan array binding signal (z-score),[4],0.728
same,glycan array binding signal (z-score),[5],0.026
same,glycan array binding signal (z-score),[6],0.321
same,glycan array binding signal (z-score),[7],-1.4
same,glycan array binding signal (z-score),[8],0.335
same,glycan array binding signal (z-score),[9],-1.02
same,glycan array binding signal (z-score),[10],-0.621
same,glycan array binding signal (z-score),[11],0.034
same,glycan array binding signal (z-score),[12],1.86
same,glycan array binding signal (z-score),[13],-0.316
same,glycan array binding signal (z-score),[14],0.55
same,glycan array binding signal (z-score),[15],-0.014
same,glycan array binding signal (z-score),[16],-0.51
same,glycan array binding signal (z-score),[17],-0.418
same,glycan array binding signal (z-score),[18],-0.157
same,glycan array binding signal (z-score),[19],-0.55
same,glycan array binding signal (z-score),[20],-0.162
same,glycan array binding signal (z-score),[21],-0.732
same,glycan array binding signal (z-score),[22],-0.856
same,glycan array binding signal (z-score),[23],-0.491
same,glycan array binding signal (z-score),Fuc(a1-3)GlcNAc,-0.556
same,glycan array binding signal (z-score),[24],0.195
same,glycan array binding signal (z-score),[25],0.512
same,glycan array binding signal (z-score),[26],-0.996
same,glycan array binding signal (z-score),[27],0.948
same,glycan array binding signal (z-score),[28],0.619
same,glycan array binding signal (z-score),[29],0.455
same,glycan array binding signal (z-score),[30],-0.322
same,glycan array binding signal (z-score),[31],-1.67
same,glycan array binding signal (z-score),[32],-0.606
same,glycan array binding signal (z-score),[33],-0.062
same,glycan array binding signal (z-score),[34],0.549
same,glycan array binding signal (z-score),[35],0.66
same,glycan array binding signal (z-score),[36],-0.287
same,glycan array binding signal (z-score),[37],-0.556

# Already shown: entries from further up.
binder,measurement,setting,value
B1,glycan array binding signal (z-score),[2],0.2
same,glycan array binding signal (z-score),[3],-0.505
same,glycan array binding signal (z-score),[4],0.728
